Experiment [1] concerns the target T1, β10-Cdc10 (budding yeast (S. cerevisiae)) (UniProt P25342).
T1 sequence: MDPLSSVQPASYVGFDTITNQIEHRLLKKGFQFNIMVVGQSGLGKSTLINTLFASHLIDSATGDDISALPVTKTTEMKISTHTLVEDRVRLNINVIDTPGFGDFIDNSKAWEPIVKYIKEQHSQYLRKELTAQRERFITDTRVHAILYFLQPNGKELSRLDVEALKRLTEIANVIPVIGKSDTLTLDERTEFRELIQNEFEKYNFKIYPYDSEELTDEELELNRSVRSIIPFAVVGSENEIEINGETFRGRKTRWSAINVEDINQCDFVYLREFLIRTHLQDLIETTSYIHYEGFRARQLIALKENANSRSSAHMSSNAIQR
Put plainly: split reporter.

Chains of the proteins cited; added tags and fusions are not shown.
UniProt P25558: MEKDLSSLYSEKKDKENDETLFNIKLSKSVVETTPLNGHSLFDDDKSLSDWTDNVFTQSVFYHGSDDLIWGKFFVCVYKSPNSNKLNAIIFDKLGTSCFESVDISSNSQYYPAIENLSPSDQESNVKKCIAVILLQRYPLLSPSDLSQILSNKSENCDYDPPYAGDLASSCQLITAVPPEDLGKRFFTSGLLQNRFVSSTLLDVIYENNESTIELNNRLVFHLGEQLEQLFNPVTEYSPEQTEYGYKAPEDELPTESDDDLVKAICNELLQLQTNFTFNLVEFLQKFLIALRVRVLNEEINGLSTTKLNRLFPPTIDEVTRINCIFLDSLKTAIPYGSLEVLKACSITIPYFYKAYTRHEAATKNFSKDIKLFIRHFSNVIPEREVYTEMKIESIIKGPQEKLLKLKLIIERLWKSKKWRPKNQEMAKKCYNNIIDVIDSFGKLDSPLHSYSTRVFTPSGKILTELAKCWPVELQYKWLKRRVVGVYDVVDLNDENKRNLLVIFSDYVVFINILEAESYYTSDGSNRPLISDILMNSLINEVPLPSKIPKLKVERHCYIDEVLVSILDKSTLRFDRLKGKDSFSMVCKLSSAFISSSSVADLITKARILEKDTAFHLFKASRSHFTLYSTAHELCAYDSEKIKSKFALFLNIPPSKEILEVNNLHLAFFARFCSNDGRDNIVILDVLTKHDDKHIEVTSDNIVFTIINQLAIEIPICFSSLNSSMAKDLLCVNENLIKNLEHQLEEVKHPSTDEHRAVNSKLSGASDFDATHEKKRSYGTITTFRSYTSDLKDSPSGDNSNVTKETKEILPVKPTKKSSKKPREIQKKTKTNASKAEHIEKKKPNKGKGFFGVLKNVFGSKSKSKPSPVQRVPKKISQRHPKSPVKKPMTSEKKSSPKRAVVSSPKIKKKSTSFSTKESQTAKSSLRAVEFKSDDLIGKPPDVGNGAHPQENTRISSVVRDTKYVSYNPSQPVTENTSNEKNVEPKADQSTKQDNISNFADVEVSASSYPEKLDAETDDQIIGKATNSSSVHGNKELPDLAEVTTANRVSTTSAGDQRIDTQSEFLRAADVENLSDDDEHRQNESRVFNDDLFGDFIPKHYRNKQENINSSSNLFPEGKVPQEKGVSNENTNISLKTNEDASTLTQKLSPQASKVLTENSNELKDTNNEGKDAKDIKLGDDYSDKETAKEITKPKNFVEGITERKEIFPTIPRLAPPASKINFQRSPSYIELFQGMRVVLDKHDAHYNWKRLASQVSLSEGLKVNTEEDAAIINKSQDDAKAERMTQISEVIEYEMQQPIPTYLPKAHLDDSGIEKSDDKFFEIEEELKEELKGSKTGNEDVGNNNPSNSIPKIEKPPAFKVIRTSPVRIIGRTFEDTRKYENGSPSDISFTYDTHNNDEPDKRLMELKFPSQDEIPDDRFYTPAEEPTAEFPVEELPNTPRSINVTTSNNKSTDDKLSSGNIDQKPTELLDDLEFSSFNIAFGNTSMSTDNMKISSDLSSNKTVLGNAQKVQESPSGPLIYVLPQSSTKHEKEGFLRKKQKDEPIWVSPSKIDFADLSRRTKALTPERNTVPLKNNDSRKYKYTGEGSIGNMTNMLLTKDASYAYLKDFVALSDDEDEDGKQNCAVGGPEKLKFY

In experiment [2] the target is T2, β10-Cdc3 (budding yeast (S. cerevisiae)) (UniProt P32457).
T2 sequence: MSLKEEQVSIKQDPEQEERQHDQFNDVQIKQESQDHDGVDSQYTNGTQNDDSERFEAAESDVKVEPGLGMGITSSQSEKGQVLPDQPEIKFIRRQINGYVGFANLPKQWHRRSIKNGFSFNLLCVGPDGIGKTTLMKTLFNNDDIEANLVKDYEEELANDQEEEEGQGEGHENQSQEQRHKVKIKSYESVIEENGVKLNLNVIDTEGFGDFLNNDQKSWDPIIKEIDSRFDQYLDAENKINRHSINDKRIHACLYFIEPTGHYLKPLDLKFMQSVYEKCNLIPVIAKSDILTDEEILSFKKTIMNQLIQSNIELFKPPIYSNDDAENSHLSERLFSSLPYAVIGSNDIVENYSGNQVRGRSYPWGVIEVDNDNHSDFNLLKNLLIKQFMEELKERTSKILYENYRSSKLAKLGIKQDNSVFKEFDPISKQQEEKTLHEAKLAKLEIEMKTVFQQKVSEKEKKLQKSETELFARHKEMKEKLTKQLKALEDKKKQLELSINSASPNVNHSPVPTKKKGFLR
Put plainly: split reporter.

Experiment [3] concerns the target T3, β10-Cdc12 (budding yeast (S. cerevisiae)) (UniProt P32468).
T3 sequence: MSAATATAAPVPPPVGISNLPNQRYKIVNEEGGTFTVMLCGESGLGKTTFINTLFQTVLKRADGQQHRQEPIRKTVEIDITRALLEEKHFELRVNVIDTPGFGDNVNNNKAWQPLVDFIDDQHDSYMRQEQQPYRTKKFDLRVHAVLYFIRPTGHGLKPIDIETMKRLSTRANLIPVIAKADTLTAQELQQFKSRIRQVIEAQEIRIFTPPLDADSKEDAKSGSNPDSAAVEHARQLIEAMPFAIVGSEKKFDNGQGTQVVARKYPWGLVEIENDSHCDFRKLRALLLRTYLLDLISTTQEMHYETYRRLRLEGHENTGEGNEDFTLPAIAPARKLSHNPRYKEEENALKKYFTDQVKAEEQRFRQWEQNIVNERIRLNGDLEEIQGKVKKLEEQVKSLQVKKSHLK
Put plainly: split reporter.

In experiment [4] the target is T4, His6-Cdc3 (budding yeast (S. cerevisiae)) (UniProt P32457).
T4 sequence: T2 sequence
Put plainly: tandem affinity co-purification.

Experiment [5] has as its target T5, Bud4-6Gly-3Flag (budding yeast (S. cerevisiae)) (UniProt P47136).
T5 sequence: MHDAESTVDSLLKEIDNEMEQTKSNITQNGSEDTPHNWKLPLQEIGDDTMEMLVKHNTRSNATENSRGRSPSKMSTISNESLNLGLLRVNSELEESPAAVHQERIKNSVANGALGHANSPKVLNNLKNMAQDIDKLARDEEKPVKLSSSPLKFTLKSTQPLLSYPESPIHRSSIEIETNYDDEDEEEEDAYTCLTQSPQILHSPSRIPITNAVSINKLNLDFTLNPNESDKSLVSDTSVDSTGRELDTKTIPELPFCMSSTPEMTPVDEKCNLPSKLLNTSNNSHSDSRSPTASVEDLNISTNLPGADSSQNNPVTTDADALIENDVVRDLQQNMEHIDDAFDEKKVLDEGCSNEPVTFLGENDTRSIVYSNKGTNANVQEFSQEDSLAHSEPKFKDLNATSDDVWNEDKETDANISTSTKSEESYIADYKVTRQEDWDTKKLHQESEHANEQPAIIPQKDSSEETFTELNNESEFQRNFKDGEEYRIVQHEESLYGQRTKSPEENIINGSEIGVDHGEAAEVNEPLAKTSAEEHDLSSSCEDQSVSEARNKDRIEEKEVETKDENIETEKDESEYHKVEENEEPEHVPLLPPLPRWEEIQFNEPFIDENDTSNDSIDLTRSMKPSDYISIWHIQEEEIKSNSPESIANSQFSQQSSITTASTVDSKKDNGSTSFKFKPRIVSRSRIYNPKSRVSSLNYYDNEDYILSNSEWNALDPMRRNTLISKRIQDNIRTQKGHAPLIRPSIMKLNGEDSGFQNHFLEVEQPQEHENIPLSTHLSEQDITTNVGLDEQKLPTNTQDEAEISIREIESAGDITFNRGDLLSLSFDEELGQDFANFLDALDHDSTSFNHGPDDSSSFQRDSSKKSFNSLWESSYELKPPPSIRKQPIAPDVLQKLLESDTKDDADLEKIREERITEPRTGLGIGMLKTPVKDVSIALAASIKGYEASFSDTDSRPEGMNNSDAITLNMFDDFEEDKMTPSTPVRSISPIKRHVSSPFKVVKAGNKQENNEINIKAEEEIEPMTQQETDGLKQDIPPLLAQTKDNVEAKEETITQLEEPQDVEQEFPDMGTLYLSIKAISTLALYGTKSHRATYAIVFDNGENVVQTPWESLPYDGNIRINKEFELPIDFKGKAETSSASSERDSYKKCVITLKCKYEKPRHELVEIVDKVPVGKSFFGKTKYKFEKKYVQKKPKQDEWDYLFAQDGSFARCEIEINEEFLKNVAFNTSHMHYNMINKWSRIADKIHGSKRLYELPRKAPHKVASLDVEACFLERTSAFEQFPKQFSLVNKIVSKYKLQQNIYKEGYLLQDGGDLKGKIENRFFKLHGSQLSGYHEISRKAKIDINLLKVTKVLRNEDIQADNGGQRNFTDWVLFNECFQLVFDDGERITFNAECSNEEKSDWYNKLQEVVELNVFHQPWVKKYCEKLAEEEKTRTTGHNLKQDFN
Put plainly: co-IP.

For five molecules, binding results are on record in paper doi:10.1101/2025.10.03.680245 (bioRxiv, 2025).

Results are given in words; binding and its absence hold for the method and conditions named. For some of these results: In cells and extracts the contact can be indirect. Some results given as binding are weak or reduced against the parent protein; the word gives no strength. For some of these results: Sequences can lack the tags named with a protein.

Consider “Bud3-linker(3aa)-GFPβ11 (from UniProt P25558 1-1636)”, for which the values for the binding entry in experiment [1], in experiment [2] and in experiment [3] were “binds”, “no binding” and “no binding”, respectively.

B1: Cdc12 (recombinant) (protein, UniProt P32468 1-407)
chain: T3 sequence
Regarding B1, in experiment [4], the binding entry is given as “binds”.

B2: Cdc10 (protein, UniProt P25342 1-322)
chain: T1 sequence
With B2, the binding result in experiment [4] is recorded as “binds”.

B3: Cdc11 (protein, UniProt P32458 1-415)
chain: MSGIIDASSALRKRKHLKRGITFTVMIVGQSGSGRSTFINTLCGQQVVDTSTTILLPTDTSTEIDLQLREETVELEDDEGVKIQLNIIDTPGFGDSLDNSPSFEIISDYIRHQYDEILLEESRVRRNPRFKDGRVHCCLYLINPTGHGLKEIDVEFIRQLGSLVNIIPVISKSDSLTRDELKLNKKLIMEDIDRWNLPIYNFPFDEDEISDEDYETNMYLRTLLPFAIIGSNEVYEMGGDVGTIRGRKYPWGILDVEDSSISDFVILRNALLISHLHDLKNYTHEILYERYRTEALSGESVAAESIRPNLTKLNGSSSSSTTTRRNTNPFKQSNNINNDVLNPASDMHGQSTGENNETYMTREEQIRLEEERLKAFEERVQQELLLKRQELLQREKELREIEARLEKEAKIKQEE
Take B3: the binding result in experiment [5] is given as “binds”.

B4: Cdc11 (recombinant) (protein, UniProt P32458 1-415)
chain: B3 chain
For the molecule B4, in experiment [4], the binding entry was “binds”.
